In article PMC5889392, “Cryptic glucocorticoid receptor-binding sites pervade genomic NF-κB response elements”:
These are yes or no findings as the source states them, for the method shown. In cells and extracts the contact can be indirect. Some binding calls cover weakened binding; strength is not graded here.

Sequences of proteins named here, by UniProt entry; tags and fusion partners are left off. A change or cut given only in a name is not applied to a line headed by its entry.
UniProt P04150: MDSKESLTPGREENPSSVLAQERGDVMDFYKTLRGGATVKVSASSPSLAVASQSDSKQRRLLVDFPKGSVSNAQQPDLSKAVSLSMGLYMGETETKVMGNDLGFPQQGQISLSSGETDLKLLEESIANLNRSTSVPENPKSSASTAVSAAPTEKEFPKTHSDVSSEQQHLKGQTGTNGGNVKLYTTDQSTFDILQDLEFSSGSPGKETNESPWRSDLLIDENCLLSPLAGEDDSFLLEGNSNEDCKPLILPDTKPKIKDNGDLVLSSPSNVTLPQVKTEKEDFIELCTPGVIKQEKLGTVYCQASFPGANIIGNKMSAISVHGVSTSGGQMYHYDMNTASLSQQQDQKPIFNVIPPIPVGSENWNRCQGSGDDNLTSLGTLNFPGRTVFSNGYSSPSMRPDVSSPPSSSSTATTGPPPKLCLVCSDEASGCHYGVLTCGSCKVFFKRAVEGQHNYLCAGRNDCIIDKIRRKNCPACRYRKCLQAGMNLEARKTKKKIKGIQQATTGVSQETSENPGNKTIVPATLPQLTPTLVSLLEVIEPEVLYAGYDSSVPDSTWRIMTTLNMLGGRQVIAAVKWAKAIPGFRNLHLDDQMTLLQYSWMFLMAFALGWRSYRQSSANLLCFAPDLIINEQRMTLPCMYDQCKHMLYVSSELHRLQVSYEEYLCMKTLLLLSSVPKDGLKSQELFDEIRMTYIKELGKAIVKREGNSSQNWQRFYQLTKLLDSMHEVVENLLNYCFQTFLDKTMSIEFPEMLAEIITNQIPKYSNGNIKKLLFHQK
UniProt Q04206: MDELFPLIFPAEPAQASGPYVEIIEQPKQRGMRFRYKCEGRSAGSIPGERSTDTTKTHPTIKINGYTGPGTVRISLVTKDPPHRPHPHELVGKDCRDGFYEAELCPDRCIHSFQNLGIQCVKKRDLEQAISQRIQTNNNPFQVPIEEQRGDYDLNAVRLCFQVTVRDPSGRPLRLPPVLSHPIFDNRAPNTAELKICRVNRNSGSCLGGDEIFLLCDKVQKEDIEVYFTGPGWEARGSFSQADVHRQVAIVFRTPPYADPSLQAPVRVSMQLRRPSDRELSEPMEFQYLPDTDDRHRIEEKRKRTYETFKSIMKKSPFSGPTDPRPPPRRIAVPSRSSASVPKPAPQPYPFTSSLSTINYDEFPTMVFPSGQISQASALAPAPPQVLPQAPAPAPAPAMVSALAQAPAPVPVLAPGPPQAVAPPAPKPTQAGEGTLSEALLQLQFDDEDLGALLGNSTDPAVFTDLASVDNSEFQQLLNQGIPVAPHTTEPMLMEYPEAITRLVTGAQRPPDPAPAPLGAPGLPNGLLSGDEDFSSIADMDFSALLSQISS

Legend:
Experiment in all cases: co-IP; HEK293T cells co-transfected with rtTA, inducible HA-GR (WT or mutant) and p65 plasmids; 1 μg/ml doxycycline 24 h, 10 ng/ml TNF-α 1 h; RIPA lysate; IP with anti-HA (Y-11) on Dynabeads protein G overnight at 4 °C, western blot with anti-p65 (F-6)
[1] = molecular target: HA-tagged glucocorticoid receptor K442A R447A (HA-GR-K442A R447A) (human) (UniProt P04150)
[2] = molecular target: HA-tagged glucocorticoid receptor S425G (HA-GR-S425G) (human) (UniProt P04150)
[3] = molecular target: HA-tagged wild-type glucocorticoid receptor (HA-GR-WT) (human) (UniProt P04150)

binding [1]: binds | binding [2]: binds | binding [3]: binds
Substance: p65/RelA subunit of NF-κB (from UniProt Q04206 1-551)
